What was measured:
[1] = system: goat IgG protein; experiment: Effect of hydrolytic stability on protein labeling efficiency; details: dye/protein ratio 10
[2] = system: goat anti-mouse IgG (GAM); experiment: Protein labeling with reactive dye, degree of substitution on goat anti-mouse IgG
[3] = dye in 25% DMF/75% aqueous sodium bicarbonate for 1 minute before labeling
[4] = dye in 25% DMF/75% aqueous sodium bicarbonate for 5 minutes before labeling

Compound | Degree of Substitution [1, 3] | Degree of Substitution [1, 4] | Degree of Substitution ([1]; dye in 25% DMF/75% aqueous sodium bicarbonate for 10 minutes before labeling) | Degree of Substitution ([1]; dye in 25% DMF/75% aqueous sodium bicarbonate for 20 minutes before labeling) | Degree of Substitution ([1]; dye in 25% DMF/75% aqueous sodium bicarbonate for 30 minutes before labeling) | Degree of Substitution ([2]; Dye:Protein Ratio 2.5) | Degree of Substitution ([2]; Dye:Protein Ratio 5.5) | Degree of Substitution ([2]; Dye:Protein Ratio 8.0)
O=C(CCCCCNS(=O)(=O)c1ccc(C2=c3cc4c5c(c3Oc3c2cc2c6c3CCCN6CCC2)CCC[N+]=5CCC4)c(S(=O)(=O)[O-])c1)ON1C(=O)CCC1=O [Compound 2] | 4.09 | 3.64 | 3.38 | 2.96 | 3.00 | 1.29 | 2.54 | 3.27
sulfonyl chloride of sulforhodamine 101 [SSC, reference compound] | 0.30 | no protein conjugate is formed |  |  |  |  |  | 
